Experimental data: ChEMBL document CHEMBL5241054, “Effective anti-aromatase therapy to battle against estrogen-mediated breast cancer: Comparative SAR/QSAR assessment on steroidal aromatase inhibitors” (Eur J Med Chem, 2020)

Target: T1, Aromatase (Homo sapiens, UniProt P11511)
T1 sequence (P11511 whole entry): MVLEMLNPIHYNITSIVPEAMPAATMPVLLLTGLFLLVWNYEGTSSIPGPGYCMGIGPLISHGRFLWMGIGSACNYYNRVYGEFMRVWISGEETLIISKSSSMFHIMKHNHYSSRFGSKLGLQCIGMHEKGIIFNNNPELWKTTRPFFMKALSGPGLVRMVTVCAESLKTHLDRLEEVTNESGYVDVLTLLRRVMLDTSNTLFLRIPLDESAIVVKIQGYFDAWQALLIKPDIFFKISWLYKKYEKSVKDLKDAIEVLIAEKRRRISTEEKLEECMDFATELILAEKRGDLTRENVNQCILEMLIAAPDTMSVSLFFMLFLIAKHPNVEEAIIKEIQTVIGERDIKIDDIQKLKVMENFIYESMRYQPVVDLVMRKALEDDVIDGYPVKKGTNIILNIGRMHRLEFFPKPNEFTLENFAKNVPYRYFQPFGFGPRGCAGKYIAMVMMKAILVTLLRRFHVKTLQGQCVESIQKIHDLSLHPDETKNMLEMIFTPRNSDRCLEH

## C[C@]12C[C@@H](F)C(=O)C=C1CC[C@@H]1[C@@H]2CC[C@]2(C)C(=O)CC[C@@H]12
  IC50: 1 µM
